# Experimental data taken from the supplement of paper PMC9135407.
# “And” between values parts separate entries of the source, which are not always exact repeats. Equal entries are not always repeated. Structures can show the parent of a compound that is named as a salt. ± gives the standard deviation of the averaged measurements. Some of the results follow. Baselines shift from plate to plate; read single values as rough.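 Primary human stellate myofibroblasts activated in culture; inactivation shown by regained lipid droplets. Readout: fraction of Hoechst-counted cells exceeding a per-plate Bodipy threshold, duplicate wells, each plate with DMSO negative and nortriptyline positive controls. Hits: control-normalized score beyond the plate's top-tenth-percentile nortriptyline wells, or among its three best wells. Final well concentrations unstated.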
# System: primary human hepatic stellate cells (donor 1)
# Assay: percent Bodipy-positive cells; higher = more lipid droplet accumulation
# Conditions: 48 h
# [1] = library stock concentration: 1 mM
# [2] = library stock concentration: 10 mM
# [3] = library stock concentration: 3.33 mM
# [4] = library stock concentration: 80 uM
# [5] = library stock concentration: 400 uM
# [6] = library stock concentration: 2 mM
# [7] = library stock concentration: 4.9 mM
smiles,measurement,setting,value
CCCCCCCCCCCCCCCCCCOC[C@@H](COP(=O)([O-])OCC[N+](C)(C)C)OC [1-Octadecyl-2-methylglycero-3 PC],percent Bodipy-positive cells,[1],9.59 ± 8.9%
CNCCC(Oc1ccc(C(F)(F)F)cc1)c1ccccc1.Cl (stereo unspecified),percent Bodipy-positive cells,[2],98.48 ± 0.42%
CCN1CC(CCN2CCOCC2)C(c2ccccc2)(c2ccccc2)C1=O (stereo unspecified),percent Bodipy-positive cells,library stock concentration: 10.4 mM,9.92 ± 4%
CCN1CC(CCN2CCOCC2)C(c2ccccc2)(c2ccccc2)C1=O (stereo unspecified) [Doxapram HCl],percent Bodipy-positive cells,[3],9.57 ± 1.2%
same,percent Bodipy-positive cells,[2],25.7 ± 4.3%
N[C@@H](C(=O)N[C@@H]1C(=O)N2C(C(=O)O)=C(CSc3cn[nH]n3)CS[C@H]12)c1ccc(O)cc1,percent Bodipy-positive cells,[2],9.33 ± 1.9%
C[C@]12CC[C@@H]3c4cc(O)c(O)cc4CC[C@H]3[C@@H]1CC[C@@H]2O [2-Hydroxyestradiol],percent Bodipy-positive cells,[1],12.9 ± 1.7%
Cc1cnc(CNC(=O)c2c(=O)c3ccc(N4CCCN(C)CC4)nc3n3c2sc2ccccc23)cn1,percent Bodipy-positive cells,[4],38.1 ± 8.9%
same,percent Bodipy-positive cells,[5],33 ± 2.9%
same,percent Bodipy-positive cells,[6],41.8 ± 4.9%
same,percent Bodipy-positive cells,[2],44 ± 3.1%
CN1CCCC(n2nc(Cc3ccc(Cl)cc3)c3ccccc3c2=O)CC1.Cl (stereo unspecified) [Azelastine HCl],percent Bodipy-positive cells,[2],89.5 ± 5.4%
CCC(=O)O[C@]1(C(=O)CCl)[C@@H](C)C[C@H]2[C@@H]3C[C@H](F)C4=CC(=O)C=C[C@]4(C)[C@@]3(F)[C@@H](O)C[C@@]21C [Halobetasol Propionate],percent Bodipy-positive cells,[3],9.77 ± 4.3%
same,percent Bodipy-positive cells,[2],26 ± 7.8%
CC(C)Oc1ccc2c(=O)c3cc(C(=O)O)ccc3oc2c1,percent Bodipy-positive cells,[1],13.8 ± 2.2%
same,percent Bodipy-positive cells,[2],7.25 ± 0.93%
CC(=O)N[C@H]1[C@H]([C@H](O)[C@H](O)CO)OC(C(=O)O)=C[C@@H]1NC(=N)N [Zanamivir],percent Bodipy-positive cells,[3],9.15 ± 6.3%
same,percent Bodipy-positive cells,[2],9.24 ± 0.83%
N=C(N)NCCC[C@H](N)C(=O)O [L-Arginine],percent Bodipy-positive cells,[2],36.6 ± 2.2%
Cc1nc2n(c(=O)c1CCN1CCC(c3noc4cc(F)ccc34)CC1)CCCC2,percent Bodipy-positive cells,[2],24.1 ± 9.4%
Cc1nc2n(c(=O)c1CCN1CCC(c3noc4cc(F)ccc34)CC1)CCCC2 [Risperidone],percent Bodipy-positive cells,,10 ± 5.8%
same,percent Bodipy-positive cells,[3],22.5 ± 1.9%
same,percent Bodipy-positive cells,[7],11.9 ± 1.5%
same,percent Bodipy-positive cells,[2],27.7 ± 2.9%
CNCCC(Oc1ccc(C(F)(F)F)cc1)c1ccccc1 (stereo unspecified) [Fluoxetine hydrochloride],percent Bodipy-positive cells,[2],100%
CNCCC(Oc1ccc(C(F)(F)F)cc1)c1ccccc1 (stereo unspecified) [Fluoxetine],percent Bodipy-positive cells,[2],81.7 ± 16%
"C[C@@H](CN1CC(=O)NC(=O)C1)N1CC(=O)NC(=O)C1 [Dexrazoxane HCl (ICRF-187, ADR-529)]",percent Bodipy-positive cells,[3],14.1 ± 3.1%
same,percent Bodipy-positive cells,[2],19.1 ± 4.9%
C[C@@H](CN1CC(=O)NC(=O)C1)N1CC(=O)NC(=O)C1 [Dexrazoxane hydrochloride],percent Bodipy-positive cells,[2],9.44 ± 0.58%
CC(=O)Nc1ccc(CC(=O)O)cc1,percent Bodipy-positive cells,[2],9.76 ± 3.3%
O=C(O)Cc1sc(-c2ccccc2)nc1-c1ccc(Cl)cc1 [Fentiazac],percent Bodipy-positive cells,library stock concentration: 6.1 mM,10.8 ± 1.6%
CC(=O)OCC(=O)[C@@]12N=C(C)O[C@@H]1C[C@H]1[C@@H]3CCC4=CC(=O)C=C[C@]4(C)[C@H]3[C@@H](O)C[C@@]12C [Deflazacort],percent Bodipy-positive cells,[3],9.17 ± 1.8%
same,percent Bodipy-positive cells,[2],12.7 ± 3.3%
CC(=O)OCC(=O)[C@@]12N=C(C)O[C@@H]1C[C@H]1[C@@H]3CCC4=CC(=O)C=C[C@]4(C)[C@H]3[C@@H](O)C[C@@]12C,percent Bodipy-positive cells,[2],28.1 ± 1.4%
C#CCN1C(C)=C(C(=O)OC)C(c2cccc([N+](=O)[O-])c2)C(C(=O)OCC)=C1C (stereo unspecified),percent Bodipy-positive cells,[2],9.48 ± 0.35%
OCc1cc(C(O)CNCCCCCCOCCCCc2ccccc2)ccc1O (stereo unspecified) [Salmeterol],percent Bodipy-positive cells,,34.8 ± 0.71%
same,percent Bodipy-positive cells,library stock concentration: 4.8 mM,55.7 ± 12%
same,percent Bodipy-positive cells,[2],53.4 ± 1.5%
O=c1c(O)c(-c2ccc(O)c(O)c2)oc2cc(O)c(O)c(O)c12 [Quercetagetin],percent Bodipy-positive cells,[3],9.69 ± 1.6%
CCCCCCCCCCCCCCCCOC[C@H](CO)SC(C)=O [2-thio-Acetyl MAGE],percent Bodipy-positive cells,[1],10.6 ± 4.2%
Cn1nccc1Nc1nccc(-c2ccn([C@H](CO)c3ccc(Cl)c(F)c3)c(=O)c2)n1,percent Bodipy-positive cells,[4],5.94 ± 0.59%
same,percent Bodipy-positive cells,[5],3.84 ± 1.6%
same,percent Bodipy-positive cells,[6],4.64 ± 1.3%
same,percent Bodipy-positive cells,[2],4.88 ± 0.96%
Cl.Cl.Clc1ccccc1CNC[C@H]1CC[C@H](CNCc2ccccc2Cl)CC1,percent Bodipy-positive cells,[2],99.74 ± 0.37%
CC(C)Nc1ncccn1,percent Bodipy-positive cells,[2],32.7 ± 5.9%
CC(C)(C)NC[C@H](O)c1ccc(O)c(CO)c1,percent Bodipy-positive cells,[2],37.8 ± 15%
CCOc1ccccc1OCCN[C@H](C)Cc1ccc(OC)c(S(N)(=O)=O)c1 [Tamsulosin HCl],percent Bodipy-positive cells,[7],7.67 ± 0.71%
CCCSc1ccc2nc(NC(=O)OC)[nH]c2c1 [Albendazole],percent Bodipy-positive cells,[2],89 ± 1.5%
Cn1c(-c2ccc3c(c2)OCO3)cc(=O)c2ccccc21 [Graveoline],percent Bodipy-positive cells,,9.26 ± 1.2%
CCCCCCCCCCCCC[N+](C)(C)Cc1ccccc1 [Benzalkonium chloride],percent Bodipy-positive cells,[2],51.1 ± 4.2%
"CCCCCCCCCCC/C=C\C(C)(C)/C=C\CCCC(=O)O [7,7-Dimethyl-(5Z,8Z)-eicosadienoic acid]",percent Bodipy-positive cells,[2],57.1 ± 4.1%
COc1ccc(Nc2ncnc3ccc(OC)cc23)cc1 [MPMQ hydrochloride],percent Bodipy-positive cells,[2],12 ± 1.3%
O=S(=O)(O)CCS [Mesna],percent Bodipy-positive cells,[3],14 ± 2.4%
same,percent Bodipy-positive cells,[2],11.5% and 27.6%
same,percent Bodipy-positive cells,library stock concentration: 12.2 mM,16.8 ± 2.9%
CCn1cc(C(=O)O)c(=O)c2cnc(N3CCCC3)nc21 [Piromidic acid],percent Bodipy-positive cells,,9.65 ± 4.5%
same,percent Bodipy-positive cells,[2],32.2 ± 11%
CCOC(=O)OC(C)OC1=C(C(=O)Nc2ccccn2)N(C)S(=O)(=O)c2ccccc21 (stereo unspecified) [Ampiroxicam],percent Bodipy-positive cells,[3],11.7 ± 6.1%
same,percent Bodipy-positive cells,library stock concentration: 4.5 mM,11.3 ± 3%
same,percent Bodipy-positive cells,[2],26.6 ± 22%

# Some of the entries so far, with bars between the fields.
smiles | measurement | setting | value
CCN1CC(CCN2CCOCC2)C(c2ccccc2)(c2ccccc2)C1=O (stereo unspecified) [Doxapram HCl] | percent Bodipy-positive cells | [2] | 25.7 ± 4.3%
CNCCC(Oc1ccc(C(F)(F)F)cc1)c1ccccc1 (stereo unspecified) [Fluoxetine] | percent Bodipy-positive cells | [2] | 81.7 ± 16%
CC(=O)OCC(=O)[C@@]12N=C(C)O[C@@H]1C[C@H]1[C@@H]3CCC4=CC(=O)C=C[C@]4(C)[C@H]3[C@@H](O)C[C@@]12C [Deflazacort] | percent Bodipy-positive cells | [3] | 9.17 ± 1.8%
CC(=O)OCC(=O)[C@@]12N=C(C)O[C@@H]1C[C@H]1[C@@H]3CCC4=CC(=O)C=C[C@]4(C)[C@H]3[C@@H](O)C[C@@]12C | percent Bodipy-positive cells | [2] | 28.1 ± 1.4%
